According to patent US5196094A, “Separation of 1,1,1-trichloroethane from the lower alcohols by extractive distillation” (priority 1991, dated 1993):

Legend:
[1] = Vapor-liquid equilibrium still, separation of 1,1,1-trichloroethane from ethanol; assay type: physicochemical
[2] = Vapor-liquid equilibrium still, separation of 1,1,1-trichloroethane from n-propanol; assay type: physicochemical

CC(=O)N(C)C [Dimethylacetamide]
Relative Volatility [1]: 2.1
Relative Volatility [2]: 2.8
